## Screening data, single-dose tests

The values are deposited in ChEMBL (CHEMBL3988442, “University of Dundee, Small-Polar-MMV Screening Library” (2021)).

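Whole-parasite assay of Trypanosoma brucei over 72 hours; the read-out is not stated. Concentration: 30 µM. Direction is inferred from retests: higher values go with stronger inhibition. Values scatter widely below zero; nearly all retest evidence comes from the higher of the two concentrations used. Of about 64,000 compounds tested this way, about 940 (1.5%) reached 50% or more in at least one test.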

The filed quantity is “Percent Effect” (%). The controls that fix the scale are not given in the record; negative values are as filed. The compounds are a random part of those screened.

With O=C(O)C(F)(F)F.O=C(O)C(F)(F)F.[H][C@@]12CN(CCOC)CC[C@]1([H])CN(Cc1cccnc1OC)C2 the screen gave -1.267%. For CC1(C)[C@H](Cc2cc(CN3CCOCC3)on2)C[C@@H]1NC(=O)C1CCC1 the result was -12.68%. For CC(C)(C)CC(=O)Nc1cnn(-c2ccccc2S(C)(=O)=O)c1 the result was -26.43%. COc1cc(N2CCCC3(CCN(c4cccnc4)C3=O)C2)ncn1.O=C(O)C(F)(F)F (configuration not stated) read -99.85%. With NC(=O)C1CCN(C(=O)Cn2nc(-c3ccccc3)oc2=O)C1 (configuration not stated) the screen gave 20.84%.

CCn1ncc2c1C(COC)CN(Cc1ccc(OC)cc1)C2 (configuration not stated) read -11.84%. For Cn1nnnc1SCCC(=O)NCC1Cc2ccccc2O1 (configuration not stated) the result was -41.46%. [H][C@@]12CCN(Cc3nccs3)C[C@@]1([H])O[C@@H](c1ccncn1)C2 read -75.59%. For CC(=O)NCCn1ccnc1-c1cccc(C(C)N(C)C)c1 (configuration not stated) the result was -61.43%. Cc1c(C)n(CC(O)CN2CCOCC2)c2c(Cl)cccc12.Cl (configuration not stated) read -19.65%.

COc1ccc(-c2nnc(C(C)N3CCC4(CC3)OCCO4)o2)cc1 (configuration not stated) gave -36.45%. COCCN1C(=O)CCC12CCN(C(=O)CC1CC1)CC2 read -16.75%. Result for O=C(CCCOc1ccc(F)cc1)N1CCCC(n2cccn2)C1 (configuration not stated) was 14.84%. Cn1cc(I)c(C(=O)NC2CCCCC2)n1 gave -86.17%. Result for CN(C)c1nccnc1C1CCN(C(=O)C2(C)CCCCN2C)CC1 (configuration not stated) was 40.13%.

O=C(Cc1ccccc1F)NCC1CCN(CCc2ccccc2)C1 (configuration not stated) gave -13.68%. Result for Cn1cc(N2CC3(CCN(S(=O)(=O)C4CC4)C3)CC2=O)cn1 (configuration not stated) was 12.41%. With O=C(O)C(F)(F)F.[H][C@@]12CCN(Cc3ccc4c(c3)OCO4)C[C@]1([H])[C@H](C(=O)N(C)C)CCO2 the screen gave 12.29%. Cc1nn(C(C)C)c(C)c1NC(=O)Nc1cccnc1N1CCCC1 gave 0.8377%. Result for COCc1ccc(CNCc2c(C)nn(C)c2N(C)C)cc1 was -36.62%.

With O=S(=O)(Cc1ccccc1F)N1CCCC1c1nnc2n1CCCCC2 (configuration not stated) the screen gave 2.109%. Result for CCN(CC1CCCO1)C(=O)Nc1cc(C(N)=O)ccc1OC (configuration not stated) was -8.477%. CC(=O)N1CCOC[C@H](OCC(=O)N(C)C)C1 gave -27.71%. Cc1c(C(=O)NCC(C)C)nnn1-c1cccc2c1CCN(C)C2 read 21.99%. For COCC1c2c(cnn2C)CCN1Cc1cccc(C)c1.O=C(O)C(F)(F)F.O=C(O)C(F)(F)F (configuration not stated) the result was -18.67%.

For Cc1ncsc1C(=O)NC1CCN(CCC#N)CC1 the result was -27.6%. CC(Cn1ccnc1)NC(=O)C1(c2ccccc2)CC1 (configuration not stated) gave -8.335%. For O=C(O)C(F)(F)F.[H][C@@]12C[C@@H](c3nc(C)no3)O[C@]1([H])CN(Cc1scnc1C)C2 the result was -99.47%. Result for Fc1cccc(Cl)c1CNCc1ccccn1 was -5.232%. For O=C(NCC(=O)N1CCCC1Cc1cccc(F)c1)c1ccccn1 (configuration not stated) the result was 3.916%.

Cc1cc(=O)n2nc(Oc3ccc(Cl)c(C)c3)sc2n1 gave -32.75%. Result for O=C(O)C(F)(F)F.[H][C@@]12OCCN(Cc3ccco3)[C@@]1([H])CC[C@H]2OCC1CC1 was 0.4404%. COc1ccc(Cl)cc1Nc1nc(N)c(C(C)=O)s1 gave -32.25%. For CN(Cc1nnc2n1CCC2)C(=O)c1ccc(=O)n(C)n1 the result was -30.56%. CCNC(=O)c1cnc(Sc2nccn2C)c(Cl)c1 read 13.91%.

With NC(=O)CN(Cc1ncc(-c2ccccc2)o1)C1CCCC1 the screen gave -13.56%.

The last 3 entries again:

* CN(Cc1nnc2n1CCC2)C(=O)c1ccc(=O)n(C)n1 | -30.56%
* CCNC(=O)c1cnc(Sc2nccn2C)c(Cl)c1 | 13.91%
* NC(=O)CN(Cc1ncc(-c2ccccc2)o1)C1CCCC1 | -13.56%